Taken from: PubChem BioAssay AID686938 (Drosophila RNAi Screening Center, 2013)
The screen tested about 23,000 reagents; below is an unselected part of those that have a named target and a result. Of all reagents, 75 (0.33%) were called active. 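Raw plate signals without normalisation; calls rest on plate z-scores that were not deposited; ratio present for only 364 wells.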 A plus sign joins genes that one reagent is predicted to hit. The record does not give: the dose of the treatment.

- Assay: 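Looking for CRAC channel components and the factors controlling them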 (primary screen)
- System: Drosophila S2R+ cells
- Reagent: long dsRNA against Drosophila genes, about 0.25 µg dsRNA per well, roughly 10,000 cells
- Duration: 5 days of knock-down before the calcium assay
- Conditions: thapsigargin (SERCA pump blocker) to empty calcium stores; entry signal taken 4 min after adding it
- Measured: 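Per-well fluo-4 fluorescence in two replicates, unnormalised, measured in resting cells and 4 min after store depletion by the SERCA blocker thapsigargin; ratio of the two present in few wells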
- Scale: calcium entry signal: higher = stronger calcium signal after store depletion; entry to resting ratio: higher = more calcium entry relative to resting level; resting calcium signal: higher = higher resting calcium signal
- Hit rule: 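Hit if the duplicate-averaged plate z-score for entry over resting signal is under −3; wells with weak total dye signal (Fmax z < −2) or more than 5 off-targets removed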
- Calls: active = strongly reduced calcium entry; inactive = no strong reduction

Target gene,amplicon,"calcium entry signal, replicate 1 (fluorescence units)","calcium entry signal, replicate 2 (fluorescence units)",entry to resting ratio,"resting calcium signal, replicate 1 (fluorescence units)","resting calcium signal, replicate 2 (fluorescence units)",activity call
Ccdc58 + CG34116,DRSC10105,3.03e7,4.72e7,,1.54e7,2.07e7,inactive
T48,DRSC16878,3.37e7,5.66e7,,1.85e7,2.28e7,inactive
CG4073,DRSC15542,3.42e7,3.36e7,,1.69e7,1.74e7,inactive
CG11951,DRSC14442,3.10e7,4.40e7,,1.64e7,1.87e7,inactive
CG42346,DRSC20622,4.65e7,4.72e7,,2.25e7,1.94e7,inactive
CG42346,DRSC20644,4.81e7,4.92e7,,2.26e7,2.05e7,inactive
CG10914,DRSC06010,4.48e7,5.41e7,,1.93e7,2.54e7,inactive
Cyp6g2,DRSC07387,2.59e7,3.22e7,,1.31e7,1.41e7,inactive
Fhos,DRSC08943,3.39e7,4.17e7,,1.78e7,1.72e7,inactive
Fhos,DRSC10545,4.54e7,3.18e7,,2.81e7,1.40e7,inactive
Fhos,DRSC10546,4.23e7,2.79e7,,2.66e7,1.37e7,inactive
Fhos,DRSC10547,3.33e7,4.21e7,,1.60e7,1.89e7,inactive
CG6980,DRSC16162,4.57e7,4.00e7,,2.07e7,1.76e7,inactive
CG5793,DRSC15874,2.91e7,3.48e7,,7.29e7,1.51e7,inactive
Tao,DRSC19573,2.88e7,9.52e7,,1.41e7,4.12e7,inactive
Tao,DRSC19574,3.29e7,4.09e7,,1.99e7,2.09e7,inactive
Tao,DRSC22639,4.08e7,4.14e7,,2.46e7,1.97e7,inactive
ytr,DRSC04306,2.47e7,,,1.22e7,,inactive
ytr,DRSC22073,3.23e7,6.67e7,,1.49e7,3.32e7,inactive
spab,DRSC07112,2.58e7,3.40e7,,1.26e7,1.51e7,inactive
CG17493,DRSC03798,3.31e7,4.40e7,,2.21e7,2.08e7,inactive
Cpr31A,DRSC02779,2.50e7,3.64e7,,1.25e7,1.70e7,inactive
Cyp4ad1,DRSC07369,3.90e7,3.11e7,,1.58e7,1.48e7,inactive
CG32537,DRSC20073,4.50e7,4.96e7,,2.09e7,2.02e7,inactive
CG32115,DRSC22607,3.03e7,5.35e7,,1.68e7,2.23e7,inactive
Larp7,DRSC18798,3.65e7,9.01e7,,1.70e7,3.31e7,inactive
CG18659,DRSC06784,7.28e7,4.59e7,,3.94e7,2.00e7,inactive
Kal1,DRSC15983,3.21e7,3.26e7,,1.42e7,1.52e7,inactive
Klp64D,DRSC11204,3.36e7,6.17e7,,1.59e7,2.77e7,inactive
CG4066,DRSC15541,3.54e7,2.40e7,,1.77e7,1.37e7,inactive
CG17404,DRSC15234,3.52e7,1.97e7,,1.69e7,1.12e7,inactive
CG8613,DRSC07222,3.88e7,4.52e7,,1.59e7,1.97e7,inactive
Diedel2,DRSC13952,3.47e7,3.92e7,,1.76e7,2.07e7,inactive
KP78b + KP78a,DRSC23338,4.68e7,2.60e7,,2.68e7,1.25e7,inactive
KP78b + KP78a,DRSC23341,3.18e7,3.20e7,,1.90e7,1.55e7,inactive
rumpel,DRSC18436,3.26e7,3.48e7,,1.68e7,1.86e7,inactive
CG11722,DRSC14358,2.17e7,2.08e7,,1.22e7,1.18e7,inactive
Gr10b,DRSC19477,3.23e7,3.69e7,,1.64e7,1.88e7,inactive
l(2)34Fd,DRSC01911,2.37e7,,,1.41e7,,inactive
ltl,DRSC10206,2.98e7,3.80e7,,1.58e7,1.65e7,inactive
ltl,DRSC10870,3.01e7,3.55e7,,1.52e7,1.60e7,inactive
Fdx1,DRSC11167,2.43e7,3.83e7,,1.25e7,1.50e7,inactive
CG2747,DRSC15450,5.50e7,3.55e7,,2.52e7,1.62e7,inactive
CG15269,DRSC01942,4.55e7,2.23e7,,1.94e7,1.08e7,inactive
nyo,DRSC15029,3.52e7,3.87e7,2.2,1.58e7,1.66e7,inactive
nyo,DRSC15030,2.99e7,3.44e7,2,1.53e7,1.43e7,inactive
Gr92a,DRSC21631,3.32e7,4.40e7,,1.83e7,1.94e7,inactive
CG6280,DRSC06972,3.95e7,3.92e7,,1.96e7,1.82e7,inactive
CG13870,DRSC06429,3.89e7,3.99e7,,1.81e7,2.05e7,inactive
CG9400,DRSC20182,2.91e7,3.59e7,,1.44e7,1.59e7,inactive
Paf-AHalpha,DRSC20267,3.38e7,3.11e7,,1.84e7,1.55e7,inactive
CG8531,DRSC07209,3.59e7,4.39e7,,1.58e7,1.97e7,inactive
CG18557,DRSC00524,3.47e7,3.87e7,,1.64e7,1.72e7,inactive
grnd,DRSC02020,5.16e7,3.06e7,,2.24e7,1.52e7,inactive
CG17598,DRSC20636,3.42e7,4.22e7,,1.85e7,1.79e7,inactive
Ugt37C2,DRSC02247,4.92e7,2.62e7,,2.91e7,1.29e7,inactive
bigmax,DRSC15481,4.21e7,5.06e7,,1.89e7,2.27e7,inactive
Hml,DRSC11183,3.19e7,3.85e7,,1.70e7,1.55e7,inactive

6 neighbouring entries from above, for reference:
Target gene,amplicon,"calcium entry signal, replicate 1 (fluorescence units)","calcium entry signal, replicate 2 (fluorescence units)",entry to resting ratio,"resting calcium signal, replicate 1 (fluorescence units)","resting calcium signal, replicate 2 (fluorescence units)",activity call
CG18557,DRSC00524,3.47e7,3.87e7,,1.64e7,1.72e7,inactive
grnd,DRSC02020,5.16e7,3.06e7,,2.24e7,1.52e7,inactive
CG17598,DRSC20636,3.42e7,4.22e7,,1.85e7,1.79e7,inactive
Ugt37C2,DRSC02247,4.92e7,2.62e7,,2.91e7,1.29e7,inactive
bigmax,DRSC15481,4.21e7,5.06e7,,1.89e7,2.27e7,inactive
Hml,DRSC11183,3.19e7,3.85e7,,1.70e7,1.55e7,inactive
